Measured values taken from the supplement of paper PMC10849652.
Some of the results follow.

By UniProt entry, the sequences of proteins in these tests, tags left out. Where a name states a change or a piece, a line headed by the entry shows the natural chain unless it says otherwise.
UniProt O76062: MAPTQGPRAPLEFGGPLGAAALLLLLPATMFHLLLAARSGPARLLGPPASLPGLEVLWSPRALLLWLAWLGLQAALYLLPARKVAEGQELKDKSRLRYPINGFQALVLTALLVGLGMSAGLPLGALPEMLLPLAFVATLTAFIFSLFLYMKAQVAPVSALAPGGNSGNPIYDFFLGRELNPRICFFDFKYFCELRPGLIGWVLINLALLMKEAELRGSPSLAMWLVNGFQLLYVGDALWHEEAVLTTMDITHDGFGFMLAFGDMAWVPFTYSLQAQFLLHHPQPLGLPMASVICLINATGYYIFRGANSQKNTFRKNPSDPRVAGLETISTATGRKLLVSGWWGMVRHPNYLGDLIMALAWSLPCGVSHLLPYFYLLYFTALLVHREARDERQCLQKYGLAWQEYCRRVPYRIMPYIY
UniProt Q7Z403: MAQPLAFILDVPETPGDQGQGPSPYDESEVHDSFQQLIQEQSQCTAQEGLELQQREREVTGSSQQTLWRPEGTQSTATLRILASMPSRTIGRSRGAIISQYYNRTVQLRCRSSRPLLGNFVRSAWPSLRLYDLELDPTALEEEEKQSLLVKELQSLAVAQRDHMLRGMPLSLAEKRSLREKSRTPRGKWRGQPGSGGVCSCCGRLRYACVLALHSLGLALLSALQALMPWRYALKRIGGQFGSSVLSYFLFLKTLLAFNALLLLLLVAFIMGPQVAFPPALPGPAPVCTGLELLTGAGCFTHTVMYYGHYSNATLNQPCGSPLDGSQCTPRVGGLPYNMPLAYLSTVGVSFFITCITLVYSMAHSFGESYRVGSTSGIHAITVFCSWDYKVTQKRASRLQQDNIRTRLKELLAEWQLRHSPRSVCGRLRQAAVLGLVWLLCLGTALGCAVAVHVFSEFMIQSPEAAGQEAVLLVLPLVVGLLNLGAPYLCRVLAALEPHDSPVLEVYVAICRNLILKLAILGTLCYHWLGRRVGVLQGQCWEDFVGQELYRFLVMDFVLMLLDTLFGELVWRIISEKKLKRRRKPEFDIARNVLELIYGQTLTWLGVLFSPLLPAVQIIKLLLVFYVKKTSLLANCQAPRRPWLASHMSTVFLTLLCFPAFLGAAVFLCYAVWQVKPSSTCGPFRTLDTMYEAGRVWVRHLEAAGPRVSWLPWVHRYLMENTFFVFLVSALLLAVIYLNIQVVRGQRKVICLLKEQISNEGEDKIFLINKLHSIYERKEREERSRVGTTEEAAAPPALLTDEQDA
UniProt Q8NE00: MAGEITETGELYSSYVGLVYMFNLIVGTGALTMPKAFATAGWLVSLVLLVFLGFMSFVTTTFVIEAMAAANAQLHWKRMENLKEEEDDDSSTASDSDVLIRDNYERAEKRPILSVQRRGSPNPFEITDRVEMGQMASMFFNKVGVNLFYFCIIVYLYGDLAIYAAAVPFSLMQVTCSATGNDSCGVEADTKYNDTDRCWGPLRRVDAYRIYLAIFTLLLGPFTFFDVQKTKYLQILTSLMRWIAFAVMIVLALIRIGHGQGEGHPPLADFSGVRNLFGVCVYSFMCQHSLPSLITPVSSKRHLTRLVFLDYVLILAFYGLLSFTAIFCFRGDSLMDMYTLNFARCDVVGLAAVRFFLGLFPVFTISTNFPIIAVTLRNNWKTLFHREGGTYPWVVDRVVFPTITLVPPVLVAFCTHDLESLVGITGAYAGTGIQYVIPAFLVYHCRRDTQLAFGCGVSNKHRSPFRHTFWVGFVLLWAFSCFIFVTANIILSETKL
UniProt P37173, whole entry, looked up: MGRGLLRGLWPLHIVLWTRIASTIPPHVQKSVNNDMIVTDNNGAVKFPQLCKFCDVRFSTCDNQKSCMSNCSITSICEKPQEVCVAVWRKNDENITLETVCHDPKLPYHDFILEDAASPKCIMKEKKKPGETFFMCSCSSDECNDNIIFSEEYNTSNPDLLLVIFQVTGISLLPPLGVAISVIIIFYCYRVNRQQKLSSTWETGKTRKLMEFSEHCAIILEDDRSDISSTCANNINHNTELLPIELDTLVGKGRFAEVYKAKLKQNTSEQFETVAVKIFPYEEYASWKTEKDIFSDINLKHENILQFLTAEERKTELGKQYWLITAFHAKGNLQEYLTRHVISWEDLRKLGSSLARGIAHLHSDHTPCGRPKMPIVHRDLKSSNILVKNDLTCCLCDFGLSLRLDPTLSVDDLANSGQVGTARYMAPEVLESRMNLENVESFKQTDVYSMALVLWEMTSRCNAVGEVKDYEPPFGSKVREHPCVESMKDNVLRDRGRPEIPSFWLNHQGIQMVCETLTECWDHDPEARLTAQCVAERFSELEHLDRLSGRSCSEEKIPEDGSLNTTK
UniProt P51854: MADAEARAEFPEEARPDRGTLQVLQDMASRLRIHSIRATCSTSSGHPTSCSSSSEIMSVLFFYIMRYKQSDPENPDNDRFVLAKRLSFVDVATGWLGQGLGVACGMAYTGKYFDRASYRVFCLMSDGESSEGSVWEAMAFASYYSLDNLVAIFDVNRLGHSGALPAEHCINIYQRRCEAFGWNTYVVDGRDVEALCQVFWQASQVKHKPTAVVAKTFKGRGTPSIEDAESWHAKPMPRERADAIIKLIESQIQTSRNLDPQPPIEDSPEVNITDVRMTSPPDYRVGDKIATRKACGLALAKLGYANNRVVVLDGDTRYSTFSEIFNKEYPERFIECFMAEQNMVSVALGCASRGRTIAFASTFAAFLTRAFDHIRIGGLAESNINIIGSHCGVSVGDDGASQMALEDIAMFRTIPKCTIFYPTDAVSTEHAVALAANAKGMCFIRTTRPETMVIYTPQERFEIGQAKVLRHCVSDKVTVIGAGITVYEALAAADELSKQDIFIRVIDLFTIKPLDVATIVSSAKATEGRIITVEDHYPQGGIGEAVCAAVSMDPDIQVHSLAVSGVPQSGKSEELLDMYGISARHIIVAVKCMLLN
UniProt Q9Y519: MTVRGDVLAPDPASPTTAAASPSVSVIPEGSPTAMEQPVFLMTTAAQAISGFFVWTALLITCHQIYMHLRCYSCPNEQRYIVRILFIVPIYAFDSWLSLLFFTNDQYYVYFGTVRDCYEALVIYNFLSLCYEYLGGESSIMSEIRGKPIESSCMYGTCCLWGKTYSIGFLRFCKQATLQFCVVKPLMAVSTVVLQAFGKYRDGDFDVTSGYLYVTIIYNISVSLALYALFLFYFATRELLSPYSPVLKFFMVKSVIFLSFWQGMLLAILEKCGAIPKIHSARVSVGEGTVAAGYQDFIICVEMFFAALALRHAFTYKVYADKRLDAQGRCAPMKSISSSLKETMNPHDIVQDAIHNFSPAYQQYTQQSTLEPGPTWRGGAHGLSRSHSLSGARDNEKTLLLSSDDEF
UniProt Q9BVX2: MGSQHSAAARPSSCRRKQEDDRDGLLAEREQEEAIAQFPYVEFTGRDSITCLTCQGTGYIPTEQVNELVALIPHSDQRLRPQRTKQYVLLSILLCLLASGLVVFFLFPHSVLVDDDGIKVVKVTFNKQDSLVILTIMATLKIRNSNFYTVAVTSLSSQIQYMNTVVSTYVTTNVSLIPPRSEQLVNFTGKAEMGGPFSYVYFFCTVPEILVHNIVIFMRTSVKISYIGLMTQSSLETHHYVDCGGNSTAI
UniProt Q9BRN9: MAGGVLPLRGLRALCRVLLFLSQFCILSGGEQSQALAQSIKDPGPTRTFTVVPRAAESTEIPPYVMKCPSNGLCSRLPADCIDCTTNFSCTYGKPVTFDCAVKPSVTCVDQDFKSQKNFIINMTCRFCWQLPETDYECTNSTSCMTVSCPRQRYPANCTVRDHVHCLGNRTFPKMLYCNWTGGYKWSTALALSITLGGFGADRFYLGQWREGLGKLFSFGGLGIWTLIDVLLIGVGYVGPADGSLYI
UniProt A0PK00: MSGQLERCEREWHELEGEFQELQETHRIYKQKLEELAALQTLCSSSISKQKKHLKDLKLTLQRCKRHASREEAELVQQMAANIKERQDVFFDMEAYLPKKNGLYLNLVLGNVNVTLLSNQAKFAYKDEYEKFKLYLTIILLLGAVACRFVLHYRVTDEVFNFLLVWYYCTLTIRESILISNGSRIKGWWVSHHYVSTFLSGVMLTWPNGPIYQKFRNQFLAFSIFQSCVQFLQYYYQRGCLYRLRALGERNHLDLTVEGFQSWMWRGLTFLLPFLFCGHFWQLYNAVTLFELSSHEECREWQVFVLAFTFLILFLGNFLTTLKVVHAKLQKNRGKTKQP
UniProt Q6UWJ1: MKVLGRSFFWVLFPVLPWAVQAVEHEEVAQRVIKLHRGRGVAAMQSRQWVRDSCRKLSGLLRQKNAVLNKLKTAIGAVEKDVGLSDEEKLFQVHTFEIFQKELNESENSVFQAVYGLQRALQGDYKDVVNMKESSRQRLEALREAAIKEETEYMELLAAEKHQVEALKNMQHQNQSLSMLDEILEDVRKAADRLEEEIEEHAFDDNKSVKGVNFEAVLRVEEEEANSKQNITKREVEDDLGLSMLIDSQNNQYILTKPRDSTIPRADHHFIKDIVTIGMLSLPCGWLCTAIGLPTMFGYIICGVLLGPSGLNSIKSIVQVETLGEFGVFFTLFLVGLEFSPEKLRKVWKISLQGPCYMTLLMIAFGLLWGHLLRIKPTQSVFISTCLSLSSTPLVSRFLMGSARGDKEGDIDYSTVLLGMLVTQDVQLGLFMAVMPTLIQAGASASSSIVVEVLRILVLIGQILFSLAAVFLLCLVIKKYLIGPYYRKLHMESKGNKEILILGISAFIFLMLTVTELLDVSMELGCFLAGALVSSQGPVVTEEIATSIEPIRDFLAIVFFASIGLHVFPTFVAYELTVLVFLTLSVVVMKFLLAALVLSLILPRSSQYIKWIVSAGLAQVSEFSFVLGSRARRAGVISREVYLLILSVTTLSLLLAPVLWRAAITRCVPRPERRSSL
UniProt Q9NS93: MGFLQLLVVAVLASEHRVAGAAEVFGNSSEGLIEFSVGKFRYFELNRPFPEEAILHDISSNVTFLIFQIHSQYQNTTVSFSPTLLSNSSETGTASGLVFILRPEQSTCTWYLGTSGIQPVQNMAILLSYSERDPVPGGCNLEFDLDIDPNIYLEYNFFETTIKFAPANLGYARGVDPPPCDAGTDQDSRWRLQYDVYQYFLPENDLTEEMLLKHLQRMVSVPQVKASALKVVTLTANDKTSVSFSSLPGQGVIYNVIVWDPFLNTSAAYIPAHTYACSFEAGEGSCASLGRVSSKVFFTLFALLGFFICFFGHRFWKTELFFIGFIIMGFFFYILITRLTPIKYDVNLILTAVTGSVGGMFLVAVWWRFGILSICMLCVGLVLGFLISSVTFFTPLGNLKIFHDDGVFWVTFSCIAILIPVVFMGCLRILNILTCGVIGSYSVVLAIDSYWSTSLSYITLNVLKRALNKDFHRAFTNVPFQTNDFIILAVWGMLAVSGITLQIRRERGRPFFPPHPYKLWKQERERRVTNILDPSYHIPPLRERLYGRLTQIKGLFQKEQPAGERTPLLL
UniProt Q7Z402: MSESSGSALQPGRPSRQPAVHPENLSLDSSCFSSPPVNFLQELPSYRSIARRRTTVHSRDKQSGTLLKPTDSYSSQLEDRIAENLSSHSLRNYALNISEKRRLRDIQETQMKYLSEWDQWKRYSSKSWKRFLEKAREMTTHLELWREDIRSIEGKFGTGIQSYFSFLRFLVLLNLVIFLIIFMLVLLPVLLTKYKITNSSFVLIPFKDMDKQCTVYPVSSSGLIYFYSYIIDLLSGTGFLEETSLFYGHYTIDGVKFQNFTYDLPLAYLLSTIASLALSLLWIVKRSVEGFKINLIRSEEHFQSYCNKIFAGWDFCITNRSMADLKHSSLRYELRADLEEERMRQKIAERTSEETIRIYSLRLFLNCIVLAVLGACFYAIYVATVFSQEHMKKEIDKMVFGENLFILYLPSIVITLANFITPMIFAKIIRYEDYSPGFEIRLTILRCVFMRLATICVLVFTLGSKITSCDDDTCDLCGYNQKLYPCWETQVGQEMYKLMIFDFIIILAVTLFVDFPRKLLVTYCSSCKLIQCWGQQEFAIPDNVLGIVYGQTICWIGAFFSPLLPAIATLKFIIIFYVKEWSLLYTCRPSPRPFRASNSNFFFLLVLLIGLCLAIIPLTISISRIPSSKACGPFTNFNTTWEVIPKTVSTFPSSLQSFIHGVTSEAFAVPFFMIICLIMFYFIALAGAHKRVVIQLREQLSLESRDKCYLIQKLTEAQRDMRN
UniProt P36897: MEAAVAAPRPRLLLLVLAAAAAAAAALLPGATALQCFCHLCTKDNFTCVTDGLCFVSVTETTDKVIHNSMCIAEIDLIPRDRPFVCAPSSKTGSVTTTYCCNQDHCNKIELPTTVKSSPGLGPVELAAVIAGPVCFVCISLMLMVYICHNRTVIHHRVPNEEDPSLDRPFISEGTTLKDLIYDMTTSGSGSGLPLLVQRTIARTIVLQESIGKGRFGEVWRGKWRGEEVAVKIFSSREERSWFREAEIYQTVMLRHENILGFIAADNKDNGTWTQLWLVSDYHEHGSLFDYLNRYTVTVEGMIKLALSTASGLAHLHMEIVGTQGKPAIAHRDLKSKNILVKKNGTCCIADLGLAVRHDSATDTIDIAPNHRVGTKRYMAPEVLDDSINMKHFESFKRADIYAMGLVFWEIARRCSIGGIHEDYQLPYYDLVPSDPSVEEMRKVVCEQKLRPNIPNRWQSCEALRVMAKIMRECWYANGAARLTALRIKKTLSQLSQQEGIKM

Columns and labels:
Experiment in all cases: log2 fold change, soluble protein after heating vs DMSO (PISA); higher = thermal stabilisation; K562 lysate, 10 uM; active = over 0.2 and 3.5 SD of the protein, either way, in both replicates (recomputed)
crizotinib = compound: C[C@@H](Oc1cc(-c2cnn(C3CCNCC3)c2)cnc1N)c1c(Cl)ccc(F)c1Cl [crizotinib]
How it was run: (§1)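 K562 pellets were dounce-homogenised in PBS pH 7.4 with 1 mM MgCl2, and the crude extract at 1 mg/mL protein was treated with 10 μM compound for 30 min. Aliquots were heated for 3 min across 48°C-58°C, pooled, and brought to 0.5% NP-40 at 4°C; soluble protein was the supernatant after 21,000xg for 90 min. Soluble protein was quantified by TMTpro 16plex LC-MS/MS with channel sums equalised, and reported as log2 fold change in thermal stability against DMSO controls, with values from duplicates.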

doramapimod = compound: Cc1ccc(-n2nc(C(C)(C)C)cc2NC(=O)Nc2ccc(OCCN3CCOCC3)c3ccccc23)cc1 [doramapimod]
How it was run: as §1

quisinostat = compound: Cn1cc(CNCC2CCN(c3ncc(C(=O)NO)cn3)CC2)c2ccccc21 [quisinostat]
How it was run: as §1

[1] = compound: NC(=O)Nc1cc(-c2cccc(F)c2)sc1C(=O)N[C@H]1CCCNC1
How it was run: as §1

[2] = compound: NC1(c2ccc(-c3nc4ccn5c(=O)[nH]nc5c4cc3-c3ccccc3)cc2)CCC1
How it was run: as §1

[3] = compound: C[C@H](C1=CC=C(C=C1)C(=O)NC2=C3C=CNC3=NC=C2)N
How it was run: as §1

gandotinib = compound: Cc1cc(Nc2cc(CN3CCOCC3)c3nc(C)c(Cc4ccc(Cl)cc4F)n3n2)n[nH]1 [gandotinib]
How it was run: as §1

[4] = compound: Cc1cccc(CC(=O)N2CCc3c2ccc(-c2cn(C)c4ncnc(N)c24)c3F)n1
How it was run: as §1

duvelisib = compound: C[C@H](Nc1ncnc2nc[nH]c12)c1cc2cccc(Cl)c2c(=O)n1-c1ccccc1 [duvelisib]
How it was run: as §1

dasatinib = compound: Cc1nc(Nc2ncc(C(=O)Nc3c(C)cccc3Cl)s2)cc(N2CCN(CCO)CC2)n1 [dasatinib]
How it was run: as §1

[5] = compound: Cn1cc(-c2ccc3c(c2)CCN3C(=O)Cc2cccc(C(F)(F)F)c2)c2c(N)ncnc21
How it was run: as §1

tozasertib = compound: Cc1cc(Nc2cc(N3CCN(C)CC3)nc(Sc3ccc(NC(=O)C4CC4)cc3)n2)n[nH]1 [tozasertib]
How it was run: as §1

lapatinib = compound: CS(=O)(=O)CCNCc1ccc(-c2ccc3ncnc(Nc4ccc(OCc5cccc(F)c5)c(Cl)c4)c3c2)o1 [lapatinib]
How it was run: as §1

nilotinib = compound: Cc1cn(-c2cc(NC(=O)c3ccc(C)c(Nc4nccc(-c5cccnc5)n4)c3)cc(C(F)(F)F)c2)cn1 [nilotinib]
How it was run: as §1

[6] = compound: Cc1nc(Nc2n[nH]c3c2CN(C(=O)N[C@H](CN(C)C)c2ccccc2)C3(C)C)c2sccc2n1
How it was run: as §1

[7] = compound: Cc1ncc(-c2ccnc(Nc3ccc(S(C)(=O)=O)cc3)n2)n1C(C)C
How it was run: as §1

tipifarnib = compound: Cn1cncc1[C@@](N)(c1ccc(Cl)cc1)c1ccc2c(c1)c(-c1cccc(Cl)c1)cc(=O)n2C [tipifarnib]
How it was run: as §1

[8] = compound: NC(=O)c1cnc(N[C@@H]2CCCC[C@@H]2N)nc1Nc1cccc(-n2nccn2)c1
How it was run: as §1

pictilisib = compound: CS(=O)(=O)N1CCN(Cc2cc3nc(-c4cccc5[nH]ncc45)nc(N4CCOCC4)c3s2)CC1 [pictilisib]
How it was run: as §1

bafetinib = compound: Cc1ccc(NC(=O)c2ccc(CN3CC[C@H](N(C)C)C3)c(C(F)(F)F)c2)cc1Nc1nccc(-c2cncnc2)n1 [bafetinib]
How it was run: as §1

Measured: log2 fold change

TGIF1 (UniProt Q15583)
inactive: crizotinib -0.057 | doramapimod 0.088 | quisinostat -0.02 | [1] 0.095 | [2] 0.013

TM7SF2 (UniProt O76062)
inactive: crizotinib 0.234 | [3] 0.042 | gandotinib 0.158 | doramapimod -0.112 | [4] -0.113 | quisinostat -0.001 | [1] 0.12

THAP5 (UniProt Q7Z6K1)
inactive: duvelisib -0.292 | dasatinib -0.03 | [5] -0.012

TMEM154 (UniProt Q6P9G4)
inactive: crizotinib 0.035 | duvelisib 0.039 | tozasertib 0.03 | doramapimod -0.146 | dasatinib 0.058 | [5] 0.07 | quisinostat 0.103 | [1] -0.101

TMC6 (UniProt Q7Z403)
inactive: lapatinib 0.026 | crizotinib -0.036 | doramapimod 0 | nilotinib 0.051 | [6] -0.072 | [7] -0.019 | quisinostat -0.085 | tipifarnib 0.09 | [1] 0.036 | [8] -0.153 | [2] 0.017

TMEM104 (UniProt Q8NE00)
inactive: pictilisib -0.007 | crizotinib 0.023 | [3] 0.026 | gandotinib -0.001 | doramapimod -0.034 | bafetinib -0.064 | [4] 0.062 | quisinostat -0.007 | [1] -0.048

TMEM175 (UniProt Q9BSA9)
inactive: pictilisib -0.027 | crizotinib 0.012 | [3] 0.084 | gandotinib -0.388 | doramapimod 0.239 | bafetinib -0.097 | [4] 0.201 | quisinostat -0.313 | [1] 0.102 | [2] -0.136

TMCC1 (UniProt O94876)
inactive: [3] -0.191 | duvelisib -0.159 | gandotinib 0.406 | tozasertib -0.024 | [4] 0.186 | dasatinib 0.058 | [5] -0.104

TGFBR2 isoform 2 (UniProt P37173)
inactive: duvelisib -0.063 | tozasertib -0.011 | dasatinib 0.123 | [5] -0.385 | [2] 0.04

TJP1 (UniProt G3V1L9)
inactive: pictilisib 0.157 | crizotinib 0.068 | [3] 0.027 | duvelisib -0.042 | gandotinib 0.071 | doramapimod -0.209 | bafetinib -0.047 | [4] 0.059 | nilotinib 0.093 | [6] 0.051 | dasatinib 0.083 | [7] 0.11 | [5] -0.139 | quisinostat 0.137 | tipifarnib -0.078 | [1] 0.022 | [2] -0.08

TMEM129
inactive: [3] 0.127 | gandotinib -0.151 | [4] 0.008 | [2] 0.167

TLK2 isoform 3 (UniProt Q86UE8)
inactive: [3] 0.012 | gandotinib 0.009 | [4] -0.101

TJP1 (UniProt H0Y3R8)
inactive: [3] 0.068 | gandotinib -0.057 | [4] -0.063

TKTL1 (UniProt P51854)
inactive: [3] 0.051 | duvelisib 0.31 | gandotinib -0.007 | tozasertib -0.171 | [4] -0.173 | dasatinib -0.139 | [5] -0.021

TMEM184B (UniProt Q9Y519)
inactive: crizotinib 0.024 | duvelisib 0.053 | doramapimod -0.07 | dasatinib -0.083 | [5] -0.112 | quisinostat -0.006 | [1] 0.013

TK1 (UniProt K7ERV3)
active: tozasertib 0.319
inactive: pictilisib -0.144 | crizotinib 0.075 | [3] -0.07 | duvelisib -0.021 | gandotinib 0.04 | doramapimod 0.041 | bafetinib -0.181 | [4] 0.01 | nilotinib -0.024 | [6] -0.134 | dasatinib -0.114 | [7] 0.086 | [5] 0.02 | quisinostat -0.059 | tipifarnib 0.059 | [1] 0.122 | [2] -0.016

TLE3 (UniProt H0YL70)
inactive: duvelisib 0.037 | dasatinib 0.077 | [5] 0.05

TIFA (UniProt Q96CG3)
inactive: crizotinib -0.045 | [3] -0.002 | gandotinib 0.039 | tozasertib 0.027 | doramapimod 0.012 | [4] 0.159 | quisinostat -0.099 | [1] -0.036 | [2] -0.034

TMC1 (UniProt Q8TDI8)
active: quisinostat -0.552
inactive: lapatinib -0.134 | crizotinib -0.262 | tozasertib 0.074 | doramapimod 0.252 | nilotinib -0.073 | [6] -0.049 | [7] -0.28 | tipifarnib 0.015 | [1] -0.058 | [8] -0.006 | [2] 0

TMEM102 (UniProt Q8N9M5)
inactive: crizotinib -0.042 | tozasertib -0.075 | doramapimod 0.116 | nilotinib 0.105 | [6] 0.174 | [7] -0.054 | quisinostat -0.336 | tipifarnib 0.139 | [1] 0.073

THBS1 (UniProt P07996)
inactive: crizotinib -0.002 | [3] 0.038 | duvelisib -0.031 | gandotinib 0.01 | doramapimod 0.049 | [4] 0.147 | dasatinib -0.008 | [5] 0.238 | quisinostat -0.133 | [1] -0.001

TMEM106C (UniProt Q9BVX2)
inactive: pictilisib -0.005 | tozasertib 0.033 | bafetinib -0.146 | [2] -0.224

THAP7 (UniProt Q9BT49)
inactive: nilotinib 0.035 | [6] 0.037 | [7] 0.052 | tipifarnib -0.005

TIMM10B (UniProt Q9Y5J6)
inactive: pictilisib 0.002 | crizotinib -0.007 | [3] 0.197 | duvelisib -0.051 | gandotinib -0.057 | doramapimod -0.003 | bafetinib 0.102 | [4] -0.108 | dasatinib 0.073 | [5] -0.089 | quisinostat -0.039 | [1] 0.009 | [2] -0.016

Random excerpt: three entries already listed.
TKTL1 (UniProt P51854)
inactive: [3] 0.051 | duvelisib 0.31 | gandotinib -0.007 | tozasertib -0.171 | [4] -0.173 | dasatinib -0.139 | [5] -0.021

TJP1 (UniProt G3V1L9)
inactive: pictilisib 0.157 | crizotinib 0.068 | [3] 0.027 | duvelisib -0.042 | gandotinib 0.071 | doramapimod -0.209 | bafetinib -0.047 | [4] 0.059 | nilotinib 0.093 | [6] 0.051 | dasatinib 0.083 | [7] 0.11 | [5] -0.139 | quisinostat 0.137 | tipifarnib -0.078 | [1] 0.022 | [2] -0.08

THAP5 (UniProt Q7Z6K1)
inactive: duvelisib -0.292 | dasatinib -0.03 | [5] -0.012

(next part)

TMEM131 (UniProt Q92545)
inactive: [3] -0.141 | gandotinib 0.013 | [4] 0.204

TICRR (UniProt Q7Z2Z1)
inactive: duvelisib 0.116 | dasatinib 0.165 | [5] 0.152

TMEM183B (UniProt Q1AE95)
inactive: [3] -0.027 | gandotinib -0.148 | [4] 0.096

TM2D3 (UniProt Q9BRN9)
inactive: pictilisib 0.069 | gandotinib 0.329 | tozasertib -0.075 | bafetinib 0.048 | [4] 0.348 | [2] -0.09
active: [3] -0.836

TIGAR (UniProt Q9NQ88)
inactive: crizotinib -0.034 | duvelisib 0.106 | tozasertib 0.041 | doramapimod 0.127 | dasatinib 0.317 | [5] 0.058 | quisinostat -0.362 | [1] 0.129 | [2] 0.059

TMEM120B (UniProt A0PK00)
inactive: lapatinib 0.02 | crizotinib -0.032 | duvelisib -0.068 | tozasertib -0.027 | doramapimod -0.027 | dasatinib -0.173 | [5] 0.037 | quisinostat 0.067 | [1] 0.038 | [8] -0.056 | [2] 0.108

TMEM138 (UniProt Q9NPI0)
inactive: duvelisib -0.152 | tozasertib -0.103 | dasatinib 0.068 | [5] 0.023 | [2] 0

TMCO3 (UniProt Q6UWJ1)
inactive: pictilisib -0.071 | crizotinib -0.064 | [3] 0.176 | gandotinib -0.169 | tozasertib 0.015 | doramapimod -0.014 | bafetinib 0.144 | [4] -0.089 | quisinostat 0.083 | [1] -0.037

THAP4 (UniProt Q8WY91)
inactive: [3] -0.02 | gandotinib 0.033 | [4] 0.151

TM7SF3 (UniProt Q9NS93)
inactive: pictilisib -0.088 | crizotinib -0.005 | [3] 0.064 | duvelisib -0.058 | gandotinib -0.051 | tozasertib 0.01 | doramapimod -0.027 | bafetinib -0.267 | [4] -0.139 | dasatinib -0.066 | [5] 0.065 | quisinostat 0.015 | [1] -0.065 | [2] -0.007

TMC7 (UniProt Q7Z402)
inactive: [3] 0.006 | gandotinib 0.028 | [4] -0.142 | [2] 0.189

TGM2 (UniProt A2A299)
inactive: lapatinib -0.144 | nilotinib -0.055 | [6] -0.026 | [7] -0.052 | tipifarnib -0.038 | [8] 0.104

THAP3 (UniProt Q8WTV1)
inactive: crizotinib 0.046 | doramapimod 0.044 | nilotinib 0.021 | [6] 0.08 | [7] -0.023 | quisinostat -0.144 | tipifarnib -0.088 | [1] -0.125 | [2] 0.028

TMEM127 (UniProt O75204)
inactive: pictilisib 0.009 | duvelisib 0.075 | tozasertib 0.016 | bafetinib 0.021 | dasatinib 0.137 | [5] 0.065 | [2] 0.119

TGFBR1 isoform 2 (UniProt P36897)
inactive: duvelisib -0.004 | tozasertib 0.022 | [5] -0.03 | [2] -0.117

TMEM132A isoform 2 (UniProt Q24JP5)
inactive: lapatinib -0.172 | crizotinib -0.237 | [3] -0.084 | gandotinib 0.077 | tozasertib 0.042 | doramapimod -0.163 | [4] 0.002 | quisinostat -0.022 | [1] 0.087 | [8] 0.724 | [2] -0.014
